Measurements published in patent US8012987B2, “Indolo[2,1-b] quinazole-6,12-dione antimalarial compounds and methods of treating malaria therewith” (The United States of America as represented by the …, priority 1998, dated 2011).
Some of these results come from one statement about several compounds together.

Tested on: Plasmodium falciparum
Experiment: In vitro antimalarial activity against Plasmodium falciparum (strain not given)
Assay type: cell-based
Settings: judged from the IC50 values of Table 1
Description: The in vitro assays were conducted by using a modification of the semiautomated microdilution technique of Desjardins et al.^11 and Chulay et al.^12 Two strains of Plasmodium falciparum clones, from CDC Indochina III (W-2), CDC Sierra Leone I (D-6). […] They were derived by direct visualization and micromanipulation from patient isolates.^13 Test compounds were initially dissolved in DMSO and diluted 400-fold in RPMI 1640 culture medium supplemented with 25 mM Hepes, 32 mM HaHCO3, and 10% Albumax I® (GIBCO BRL, Grand Island, N.Y.). These solutions were subsequently serially diluted 2-fold with a Biomek 1000® (Beckman, Fullerton, Calif.) over 11 different concentrations. The parasites were exposed to serial dilutions of each compound for 48 h and incubated at 37° C. with 5% O2, 5% CO2, and 90% N2 prior to the addition of [^3H]hypoxanthine. After a further incubation of 18 h, parasite DNA was harvested from each microtiter well using Packard Filtermate 196 Harvester® (Meriden, Conn.) onto glass filters. Uptake of [^3H]hypoxanthine was measured with a Packard Topcount scintillation counter. […] This procedure was repeated with the test compounds initially dissolved in DMSO and diluted 400-fold in RPMI 1640 culture medium supplemented with 25 mM Hepes, 32 mM HaHCO3, and with blood serum replacing the 10% Albumax I® (see Table 1, figures without parentheses). The values without parentheses indicate culture in blood serum which more closely resemble conditions in a living animal.
Four strains of Plasmodium falciparum clones, from CDC Indochina III (W-2), CDC Sierra Leone I (D-6), Thai WR75-TM9, and Thai TM90C2B were utilized in susceptibility testing and the IC50 results appear in Table 1.

SMILES | effectiveness in treating/reducing malaria parasites as shown in Table 1
O=C1c2ccccc2-n2c1nc1c(Br)cc(Br)c(Cl)c1c2=O [Example 38] | effective
Cc1ccc(S(=O)(=O)N/N=C2/c3ccccc3-n3c2nc2ccccc2c3=O)cc1 [Example 25] | effective
O=c1c2ccccc2nc2/c(=C/C=C/c3ccccc3)c3ccccc3n12 [Example 67] | effective
O=C1c2cc(Cl)ccc2-n2c1nc1ccc(I)cc1c2=O [Example 42] | effective
CCCCCCCCc1ccc2c(c1)C(=O)c1nc3cc(N(C)CCO)ccc3c(=O)n1-2 [Example 72] | effective
O=C1c2c(Cl)cccc2-n2c1nc1ccccc1c2=O [Example 9] | effective
O=C1c2cc(F)ccc2-n2c1nc1ncccc1c2=O [Example 17] | effective
CN(CCO)c1ccc2c(=O)n3c(nc2c1)C(=O)c1cc(F)ccc1-3 [Example 68] | effective
O=C1c2cc(F)ccc2-n2c1nc1cc(F)ccc1c2=O [Example 12] | effective
O=C1c2cc(F)ccc2-n2c1nc1c(F)cccc1c2=O [Example 19] | effective
O=C1c2ccccc2-n2c1nc1nccnc1c2=O [Example 30] | effective
O=C(N/N=C1\c2ccccc2-n2c1nc1ccccc1c2=O)c1ccncc1 [Example 43] | effective
O=C1c2cc(I)ccc2-n2c1nc1c(O)nc(O)nc1c2=O [Example 32] | effective
O=C1c2ccc(Cl)cc2-n2c1nc1ncccc1c2=O [Example 22] | effective
O=C1c2cc(Cl)ccc2-n2c1nc1cc(SCCO)ccc1c2=O [Example 86] | effective
CC(C)(C)OC(=O)N1CCN(c2cc3nc4n(c(=O)c3cc2F)-c2ccc(I)cc2C4=O)CC1 [Example 31] | effective
O=c1c2ccccc2nc2oc3ccccc3n12 [Example 3] | effective
CCCCCCCCc1ccc2nc3n(c(=O)c2c1)-c1ccc(Cl)cc1C3=O [Example 44] | effective
O=C(N/N=C\c1ccc2c(c1)C(=O)c1nc3ccncc3c(=O)n1-2)c1ccncc1 [Example 88] | effective
O=C1c2ccccc2-n2c1nc1ccc(Br)cc1c2=O [Example 7] | effective
